Patent US20090252013A1, “HYDRAZIDE CHELATE COMPLEX COMPOUND, OPTICAL RECORDING MEDIUM USING THE COMPOUND AND RECORDING METHOD THEREOF” (Mitsubishi Chemical Corporation, priority 2006, published 2009)

Experiments:
[1] = Recording sensitivity test of dye film on polycarbonate substrate; settings: semiconductor laser center wavelength 404 nm, NA=0.85, dye film about 50 nm
[2] = Characteristics evaluation as optical recording medium (single-layer, HD DVD-R standard Ver. 1.0); settings: for optimum recording power / SbER (bit error rate) / PRSNR (Partial Response SNR): 405 nm; for optimum recording power: NA 0.65, linear velocity 6.61 m/s; for SbER (bit error rate): NA 0.65, standard 5.0×10^−5; for PRSNR (Partial Response SNR): NA 0.65, standard 15
[3] = Recording characteristics of two-layer optical recording medium (Layer 0 / Layer 1)

Structure (SMILES) | Maximum recording sensitivity at which formation of a recording pit was confirmed [1] | recording mechanism [2] | optimum recording power [2] | SbER (bit error rate) [2] | PRSNR (Partial Response SNR) [2] | recording mechanism ([3]; Layer 0 and Layer 1) | PRNSR ([3]; Layer 1) | SbER ([3]; Layer 1) | optimum recording power ([3]; Layer 1)
CCOC(=O)CC1=N[N+](=CC=C2N(CC)c3ccccc3C2(C)Cc2ccccc2)[Co-2]2([O]1)[O]C(CC(=O)OCC)=N[N+]2=CC=C1N(CC)c2ccccc2C1(C)Cc1ccccc1 (stereo not shown) [Compound A-11] | 7.0 mW | – | – | – | – | – | – | – | –
CCN1C(=CC=[N+]2N=C(c3ccccc3OC)[O][Co-2]23[O]C(c2ccccc2OC)=N[N+]3=CC=C2N(CC)c3ccc(OC)cc3C2(C)Cc2ccccc2)C(C)(Cc2ccccc2)c2cc(OC)ccc21 (stereo not shown) [Compound A-150] | – | Low-to-High type | 7.5 mW | 2.60×10^−5 | 15.7 | – | – | – | –
CCN(CC)C(=O)c1ccc(C2=N[N+](=CC=C3N(CC)c4ccc(OC)cc4C3(C)Cc3ccccc3)[Co-2]3([O]2)[O]C(c2ccc(C(=O)N(CC)CC)cc2)=N[N+]3=CC=C2N(CC)c3ccc(OC)cc3C2(C)Cc2ccccc2)cc1 (stereo not shown) [Compound A-159] | – | Low-to-High type | 6.0 mW | – | 31.7 | – | – | – | –
CCN1C(=CC=[N+]2N=C(c3cccc(OCCOC)c3)[O][Co-2]23[O]C(c2cccc(OCCOC)c2)=N[N+]3=CC=C2N(CC)c3ccc(OC)cc3C2(C)Cc2ccccc2)C(C)(Cc2ccccc2)c2cc(OC)ccc21 (stereo not shown) [Compound A-212] | – | Low-to-High type | 8.5 mW | 1.60×10^−7 | 31.3 | – | – | – | –
CN(C)c1ccc(C2=N/[N+](=C/c3ccccn3)[Co-2]3([O]2)[O]C(c2ccc(N(C)C)cc2)=N/[N+]3=C/c2ccccn2)cc1 [Compound B-4, reference compound] | – | Low-to-High type | 9.2 mW | 4.40×10^−4 | 10.0 | – | – | – | –
CCN1C(=CC=[N+]2N=C(c3ccc(C(=O)OC)cc3)[O][Co-2]23[O]C(c2ccc(C(=O)OC)cc2)=N[N+]3=CC=C2N(CC)c3ccc(OC)cc3C2(C)Cc2cccc(F)c2)C(C)(Cc2cccc(F)c2)c2cc(OC)ccc21 (stereo not shown) [Compound A-152] | – | Low-to-High type | 5.8 mW | – | 31.7 | Low-to-High type | 24.0 | 4.3×10^−8 | 13.0 mW
CCCN(CCC)S(=O)(=O)c1ccc(C2=N[N+](=CC=C3N(CC)c4ccc(OC)cc4C3(C)Cc3ccccc3)[Co-2]3([O]2)[O]C(c2ccc(S(=O)(=O)N(CCC)CCC)cc2)=N[N+]3=CC=C2N(CC)c3ccc(OC)cc3C2(C)Cc2ccccc2)cc1 (stereo not shown) [Compound A-211] | – | Low-to-High type | 6.4 mW | 2.30×10^−9 | 28.3 | – | – | – | –
CCOC(=O)CC1=N[N+](=CC=C2N(C)c3ccccc3C2(C)C)[Co-2]2([O]1)[O]C(CC(=O)OCC)=N[N+]2=CC=C1N(C)c2ccccc2C1(C)C (stereo not shown) [Compound A-6] | 9.0 mW | – | – | – | – | – | – | – | –
CCN1C(=CC=[N+]2N=C(c3ccccc3)[O][Co-2]23[O]C(c2ccccc2)=N[N+]3=CC=C2N(CC)c3ccc(OC)cc3C2(C)C)C(C)(C)c2cc(OC)ccc21 (stereo not shown) [Compound A-86] | – | Low-To-High type | 10.0 mW | 1.10×10^−5 | 16.0 | – | – | – | –
CCN1C(=CC=[N+]2N=C(c3cccc(OC)c3)[O][Co-2]23[O]C(c2cccc(OC)c2)=N[N+]3=CC=C2N(CC)c3ccc(OC)cc3C2(C)C)C(C)(C)c2cc(OC)ccc21 (stereo not shown) [Compound A-87] | – | Low-to-High type | 10.5 mW | 1.50×10^−5 | 15.0 | – | – | – | –
CCOc1ccccc1C1=N[N+](=CC=C2N(CC)c3c(ccc4ccccc34)C2(C)C)[Co-2]2([O]1)[O]C(c1ccccc1OCC)=N[N+]2=CC=C1N(CC)c2c(ccc3ccccc23)C1(C)C (stereo not shown) [Compound A-88] | – | Low-to-High type | 10.0 mW | 4.50×10^−5 | 17.0 | – | – | – | –
[CH2-][N+](=C\C=C\c1ccc(N(CC)CC)cc1)/N=C(\[O][Co-]1[O]C(c2c(C)cc(C)cc2C)=N/[N+]1=C/C=C/c1ccc(N(CC)CC)cc1)c1c(C)cc(C)cc1C [Compound B-6, reference compound] | – | Low-to-High type | 8.5 mW | 5.20×10^−4 | 8.5 | – | – | – | –
[CH2-][N+]1=C\c2n(C)c3ccccc3[n+]2[Co-3]23([O]C(c4ccc(N(C)C)cc4)=N[N+]2=Cc2n(C)c4ccccc4[n+]23)[O]/C(c2ccc(N(C)C)cc2)=N\1 [Compound B-5, reference compound] | – | Low-to-High type | 9.5 mW | 1.20×10^−4 | 12.0 | – | – | – | –
CCN1C(=CC=[N+]2N=C(c3ccc(C(=O)OC)cc3)[O][Co-2]23[O]C(c2ccc(C(=O)OC)cc2)=N[N+]3=CC=C2N(CC)c3ccc(OC)cc3C2(C)Cc2ccccc2)C(C)(Cc2ccccc2)c2cc(OC)ccc21 (stereo not shown) [Compound A-186] | – | Low-to-High type | 6.6 mW | 5.60×10^−9 | 30.0 | – | – | – | –
